Test results reported in US20090232748A1, “Virucidal activities of cetylpyridinium chloride” (ViraTox, L.L.C., priority 2003, published 2009).

Test system: FeLV retrovirus

SMILES: CCCCCCCCCCCCCCCC[n+]1ccccc1 [CPC, Cetylpyridinium chloride]
- effect of presence or absence of sera on CPC mediated inactivation: no effect
